In PubChem BioAssay AID448 (National Center for Advancing Translational Sciences (NCATS), 2006):
Shown are results outside the selection of hits, which stands elsewhere. Active and inactive are the calls of the source. Calls follow the shape of the full dose curve.
Potency is read from the fitted curve at half-maximal effect.

These compounds were tested on Schistosoma mansoni peroxiredoxin 2 (Prx2) (assay: Schistosoma Mansoni Peroxiredoxins (Prx2)). Conditions: S. mansoni Prx2 activity coupled to TGR/GSH (TGR is thioredoxin glutathione reductase), NADPH fluorescence loss, qHTS.
Text: NIH Molecular Libraries Screening Centers Network [MLSCN]
NIH Chemical Genomics Center [NCGC]
David Williams [Illinois State University]
Schistosoma mansoni, a causative agent of schistosomiasis, resides in the bloodstream of their host up to 30 years without being eliminated by the host immune attack. One proposed survival mechanism is the production of an antioxidant "firewall" that neutralizes the oxidative assault of the host's immune attack. Schistosoma mansoni peroxiredoxins (Prx) are important parasite antioxidant proteins that play a crucial role in redox balance mechanisms. […] First, the proteins are essential for the parasite survival. […] Third, the protein(s) is amenable for study at the molecular level and can be produced in bacteria in large quantities, in soluble and active form. Inhibition of Prx activity was screened in a coupled-enzyme format with reducing equivalents being transferred from NADPH to […] intermediate via thioredoxin/glutathione reductase (TGR)-catalyzed reaction, then from thioredoxin to hydrogen peroxide via Prx-catalyzed electron transfer. A decrease in the fluorescence intensity of NADPH was used to measure the enzyme activity. Purified S. mansoni TGR and Prx were provided by Professor David L. Williams, Illinois State University.
NCGC Assay Protocol Summary:
100 mM phosphate buffer, pH 7.4, 10 mM EDTA, 0.01% Tween-20.
100 uM NADPH/25 nM TGR/700 uM GSH/50 nM Prx2 mixture in columns 1, 2, 5-48. Titration of control potassium antimonyl tartrate (PAT, from 1 mM, then 1:5) pin-transferred to lower half of column 2. Column 1 and upper half of column 2 are neutral (100% activity).
Three uL of reagents were dispensed to 1536-well Greiner black plates. Compounds and controls (20 nL) were transferred via Kalypsys PinTool. The plates were incubated for 15 min at room temperature, and then a 1 uL aliquot of 400 uM NADPH/700 uM GSH was added, immediately followed by a 1uL aliquot of 2.5 mM H2O2 (to start the reaction). The plate was transferred to ViewLux (Perkin-Elmer) High-throughput CCD imager where kinetic measurements (every 30 sec, for a total of 8 min) of NADPH fluorescence were taken using 365 nm excitation/450 nm emission filter set. During dispense, enzyme-containing reagent bottles were kept submerged into 4 deg C water bath to minimize degradation.
Keywords: NIH Roadmap, MLSCN, MLI, MLSMR, David Williams, Peroxyredoxin, Schistosoma mansoni, prx2, prx, , qHTS, NCGC
With `Cc1c(C(=O)NN2CCCCC2)nn(-c2ccc(Cl)cc2Cl)c1-c1ccc(I)cc1` the Potency was inactive: > 57 µM.
In the case of `CCCCNc1c(CN)cnc2cc(Cl)ccc12`, the Potency is reported as inactive: > 57 µM.
For `Cc1cccc(CCN2CCC(C(=O)c3ccc(NS(C)(=O)=O)cc3)CC2)n1`, the Potency was inactive: > 57 µM.
With `COc1ccc2c(c1)c1c(C)c3cnccc3c(C)c1n2CCCN` the Potency was inactive: > 57 µM.
`NCCN1C(=O)c2ccccc2[C@@]1(O)c1ccc(Cl)cc1` was tested, and the Potency was inactive: > 57 µM.
